Sequences of proteins named here, by UniProt entry; tags and fusion partners are left off. A change or cut given only in a name is not applied to a line headed by its entry. Residues count along the entry.
UniProt P22629: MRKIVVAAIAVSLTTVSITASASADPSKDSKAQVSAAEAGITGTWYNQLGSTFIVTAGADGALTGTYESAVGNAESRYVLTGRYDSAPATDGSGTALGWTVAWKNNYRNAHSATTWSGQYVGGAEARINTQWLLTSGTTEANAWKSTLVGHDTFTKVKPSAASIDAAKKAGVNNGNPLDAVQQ
UniProt P02769, 25-607: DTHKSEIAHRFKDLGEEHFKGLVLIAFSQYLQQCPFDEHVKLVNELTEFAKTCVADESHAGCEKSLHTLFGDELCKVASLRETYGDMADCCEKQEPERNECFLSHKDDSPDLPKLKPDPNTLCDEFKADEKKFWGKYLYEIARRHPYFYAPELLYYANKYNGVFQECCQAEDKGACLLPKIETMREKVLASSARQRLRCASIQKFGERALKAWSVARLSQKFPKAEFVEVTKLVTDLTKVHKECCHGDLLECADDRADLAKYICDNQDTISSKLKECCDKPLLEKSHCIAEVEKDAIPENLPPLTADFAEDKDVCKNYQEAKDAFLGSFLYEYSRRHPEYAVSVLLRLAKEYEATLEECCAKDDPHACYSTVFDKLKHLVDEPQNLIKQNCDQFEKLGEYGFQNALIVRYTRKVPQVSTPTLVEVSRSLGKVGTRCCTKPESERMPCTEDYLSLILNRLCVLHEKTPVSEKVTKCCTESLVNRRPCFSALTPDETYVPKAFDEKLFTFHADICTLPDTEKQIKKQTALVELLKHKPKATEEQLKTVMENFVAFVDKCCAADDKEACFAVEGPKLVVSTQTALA

According to article PMC5884802:

Experiments:
streptavidin = streptavidin (UniProt P22629); test: lateral flow assay (AuNP); conditions: no-target control; 5' SH-(C6H12) thiol; LFA: 20 mM Tris, 50 mM NaCl, 5 mM KCl, 5 mM MgCl2, 2 mM CaCl2, 0.1 mM BSA, 1.7% Triton X-100, pH 8, temperature not stated; commercial protein; label: 10 nm gold nanoparticle via 5' thiol; single-stranded DNA
[1] = target: bovine serum albumin (BSA), biotinylated (UniProt P02769); test: lateral flow assay (AuNP); conditions: 40.5 µg BSA-biotin, same outcome stated for α-Amp-poly(T) and α-CRP; 5' SH-(C6H12) thiol; LFA: 20 mM Tris, 50 mM NaCl, 5 mM KCl, 5 mM MgCl2, 2 mM CaCl2, 0.1 mM BSA, 1.7% Triton X-100, pH 8, temperature not stated; commercial protein; protein details: biotin; label: 10 nm gold nanoparticle via 5' thiol; single-stranded DNA
[2] = target: T1, C-reactive protein (CRP), biotinylated (UniProt P02741); test: lateral flow assay, competition; conditions: 5' SH-(C6H12) thiol, LFA: 20 mM Tris, 50 mM NaCl, 5 mM KCl, 5 mM MgCl2, 2 mM CaCl2, 0.1 mM BSA, 1.7% Triton X-100, pH 8, temperature not stated, commercial protein, protein details: biotin (NHS-PEG4-Biotin), label: 10 nm gold nanoparticle via 5' thiol, single-stranded DNA
T1 sequence (looked up, limits assumed): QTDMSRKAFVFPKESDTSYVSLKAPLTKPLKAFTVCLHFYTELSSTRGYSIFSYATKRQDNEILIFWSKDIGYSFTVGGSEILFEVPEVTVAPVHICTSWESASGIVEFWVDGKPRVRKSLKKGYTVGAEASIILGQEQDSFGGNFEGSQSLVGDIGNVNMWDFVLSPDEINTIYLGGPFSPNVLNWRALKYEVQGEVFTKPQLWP

Sequence	binding result (streptavidin)	binding result [1]	binding result ([2]; 185 µg ampicillin per strip (about 326-fold excess) reduces test line)	binding result ([2]; 18.5 µg ampicillin per strip (32.6-fold excess) reduces test line)
CACGGCATGGTGGGCGTCGTG [α-Amp-short (AuNP conjugate)]	no binding	no binding	binds more weakly	–
ACACGATGGGGGGGTATGATTTGATGTGGTTGTTGCATGATCGTGG [α-CRP (AuNP conjugate)]	no binding	–	–	binds more weakly
TTTTTTTTTTTTTTTCACGGCATGGTGGGCGTCGTG [α-Amp-poly(T) (AuNP conjugate)]	no binding	–	–	–

For part of these data: Negatives hold for the conditions tested. For part of these data: The exact form of at least one protein or probe is not confirmed. For part of these data: The comparison behind a weaker result is the experiment's own reference, which may not be listed here. For part of these data: Tags and fusion partners may be left off the protein sequences shown.
